This experiment deals with SARS-CoV-2. The experiment is described as follows: microbe, parasite or virus in culture. Particulars: Severe acute respiratory syndrome coronavirus 2, Vero C1008, 48 h. It is filed as functional, organism-based, Chlorocebus sabaeus.

The text below walks through data of ChEMBL document CHEMBL4495565, “Cytopathic SARS-Cov2 screening on VERO-E6 cells in a large repurposing effort” (2020).

Usually pIC50 stands for the negative decadic logarithm of the IC50, by convention in mol/L. Read a low pIC50 as a high IC50.

Each structure is given as a SMILES string. pIC50: −log10 of the molar value. Structures can show the parent of a compound that is named as a salt.

`CCN(CC)CCOc1ccc(C(=C(Cl)c2ccccc2)c2ccccc2)cc1` [CLOMIPHENE CITRATE] showed a pIC50 of 4.87.
Turning to `CN(C)C(=O)C(CCN1CCC(O)(c2ccc(Cl)cc2)CC1)(c1ccccc1)c1ccccc1` [LOPERAMIDE], the pIC50 is 4.77.
